This is an account of results in patent US20240360238A1 (MAGENTA THERAPEUTICS, published 2024).

Sequences of proteins named here, by UniProt entry; tags and fusion partners are left off. A change or cut given only in a name is not applied to a line headed by its entry. A line that says so, or that is headed by a name, gives the form on record, which may keep a tag or linker. Residues count along the entry.
purified rhesus CD117 ectodomain (F6V858, form named): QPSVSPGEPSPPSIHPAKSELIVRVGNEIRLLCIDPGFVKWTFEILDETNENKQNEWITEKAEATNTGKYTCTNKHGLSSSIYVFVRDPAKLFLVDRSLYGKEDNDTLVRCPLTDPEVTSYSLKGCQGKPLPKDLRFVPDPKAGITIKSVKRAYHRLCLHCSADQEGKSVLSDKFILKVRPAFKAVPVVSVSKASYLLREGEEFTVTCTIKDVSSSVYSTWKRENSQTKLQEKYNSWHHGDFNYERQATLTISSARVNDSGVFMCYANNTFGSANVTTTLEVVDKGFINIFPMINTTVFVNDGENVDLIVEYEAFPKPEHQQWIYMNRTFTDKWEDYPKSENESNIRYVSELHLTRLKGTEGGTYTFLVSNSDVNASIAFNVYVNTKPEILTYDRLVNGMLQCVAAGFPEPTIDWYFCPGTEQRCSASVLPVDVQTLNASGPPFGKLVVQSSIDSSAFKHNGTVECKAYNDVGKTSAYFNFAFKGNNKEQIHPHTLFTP
UniProt P10721, residues 26-524: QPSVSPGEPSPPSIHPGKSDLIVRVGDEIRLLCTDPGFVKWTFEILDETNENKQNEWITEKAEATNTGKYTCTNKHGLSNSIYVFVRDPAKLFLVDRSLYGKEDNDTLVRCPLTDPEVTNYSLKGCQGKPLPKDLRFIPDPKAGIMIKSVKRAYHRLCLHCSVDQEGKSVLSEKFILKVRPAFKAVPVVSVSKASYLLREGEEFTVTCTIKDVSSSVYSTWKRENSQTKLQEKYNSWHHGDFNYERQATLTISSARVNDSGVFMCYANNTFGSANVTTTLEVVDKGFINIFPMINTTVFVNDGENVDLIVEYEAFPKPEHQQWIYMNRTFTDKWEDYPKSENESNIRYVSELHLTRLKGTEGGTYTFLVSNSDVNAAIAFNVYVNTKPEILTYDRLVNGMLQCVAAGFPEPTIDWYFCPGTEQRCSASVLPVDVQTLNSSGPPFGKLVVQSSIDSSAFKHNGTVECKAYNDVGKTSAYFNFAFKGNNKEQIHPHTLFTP

These are yes or no findings as the source states them, for the method shown. Some binding calls cover weakened binding; strength is not graded here.

Experiment [1] addresses T1, purified rhesus CD117 ectodomain (rhesus, UniProt F6V858 26-524).
T1 construct: extracellular domain; also called rhesus antigen
As to the kind of experiment: BLI, purified rhesus CD117 ectodomain.

In experiment [2] the target is T1, purified rhesus CD117 ectodomain. As to the kind of experiment: BLI, IgG sensor-associated, 100 nM rhesus CD117 ectodomain in solution. (In general: BLI is a label-free optical method that tracks binding on a fibre tip over time.)
Experiment [3] deals with purified human CD117 ectodomain (R&D Systems #332-SR) (human) (UniProt P10721). As to the kind of experiment: BLI, IgG sensor-associated, human CD117 ectodomain in solution at 33.3 nM and 11 nM.

B1: HC-19/LC-19 (Ab19) (antibody, IgG1, V domains shown)
VH: EVQLQESGPGLVKPSQSLSLTCSVTGYSISSNYRWNWIRKFPGNKVEWMGYINSAGSTNYNPSLKSRISMTRDTSKNQFFLQVNSVTTEDTATYYCARSLRGYITDYSGFFDYWGQGVMVTVSS
VL: DIRMTQSPASLSASLGETVNIECLASEDIFSDLAWYQQKPGKSPQLLIYNANSLQNGVPSRFSGSGSGTRYSLKINSLQSEDVATYFCQQYKNYPLTFGSGTKLEIK
notes: From rat immunization/hybridoma; purified IgG in BLI; also called 019
As to B1, the binding entry in experiment [1] and in experiment [2] was “binds” in each case.

B2: HC-24/LC-24 (Ab24) (antibody, IgG1, V domains shown)
VH: EVQLVESGGGLVQSGRSLKLSCAASGFTVSDYYMAWVRQAPTKGLEWVATINYDGSTTYHRDSVKGRFTISRDNAKSTLYLQMDSLRSEDTATYYCARHGDYGYHYGAYYFDYWGQGVMVTVSS
VL: DIVLTQSPALAVSLGQRATISCRASQTVSLSGYNLIHWYQQRTGQQPKLLIYRASNLAPGIPARFSGSGSGTDFTLTISPVQSDDIATYYCQQSRESWTFGGGTNLEMK
notes: From rat immunization/hybridoma; purified IgG in BLI; also called 024
As for B2, the binding entry in experiment [1] and in experiment [2] was “binds” throughout.

B3: HC-14/LC-14 (Ab14) (antibody, IgG1, V domains shown)
VH: QVQLVQSGAAVKKPGESLKISCKGSGYRFTTYWIGWVRQMPGKGLEWMGIIYPGDSDTRYSPSFQGQVTISAGKSISTAYLQWSSLKASDTAMYYCARHGRGYNGYEGAFDIWGQGTMVTVSS
VL: DIQLTQSPSSLSASVGDRVTITCRASQGISSFLAWYQQKPGKAPKLLIYDASTLQSGVPSRFSGSASGTDFTLTISSLQPEDFATYYCQQLNGYPLTFGGGTKVEIK
notes: Purified IgG; also called 014
In the case of B3, in experiment [3], the binding entry is given as “binds”.

B4: HC-25/LC-25 (Ab25) (antibody, IgG1, V domains shown)
VH: QIQLVQSGPELKKPGESVKISCKASGYTFTDYAIHWVKQAPGQGLRWMAWINTETGKPTYADDFKGRFVFSLEASASTAHLQISNLKNEDTATFFCAGGSHWFAYWGQGTLVTVSS
VL: SYELIQPPSASVTLENTVSITCSGDELSNKYAHWYQQKPDKTILEVIYNDSERPSGISDRFSGSSSGTTAILTIRDAQAEDEADYYCLSTFSDDDLPIFGGGTKLTVL
notes: From rat immunization/hybridoma; purified IgG in BLI; also called 025
For B4, the binding entry in experiment [1] and in experiment [2] was “binds” each time.

B5: HC-22/LC-22 (Ab22) (antibody, IgG1, V domains shown)
VH: QVQLKESGPGLVQPSQTLSLTCTVSGFSLTSYLVHWVRQPPGKTLEWVGLMWNDGDTSYNSALKSRLSISRDTSKSQVFLKMHSLQAEDTATYYCARESNLGFTYWGHGTLVTVSS
VL: DIQMTQSPASLSASLEEIVTITCKASQGIDDDLSWYQQKPGKSPQLLIYDVTRLADGVPSRFSGSRSGTQYSLKISRPQVADSGIYYCLQSYSTPYTFGAGTKLELK
notes: From rat immunization/hybridoma; purified IgG in BLI; also called 022
For B5, the binding result in experiment [1] and in experiment [2] was “binds” throughout.

B6: HC-17/LC-17 (Ab17) (antibody, IgG1, V domains shown)
VH: QIQLVQSGPELRKPGESVKISCKASGYTFTDYAMYWVKQAPGKGLKWMGWINTYTGKPTYADDFKGRFVFSLEASANTANLQISNLKNEDTATYFCARARGLVDDYVMDAWGQGTSVTVSS
VL: SYELIQPPSASVTLGNTVSLTCVGDELSKRYAQWYQQKPDKTIVSVIYKDSERPSGISDRFSGSSSGTTATLTIHGTLAEDEADYYCLSTYSDDNLPVFGGGTKLTVL
notes: From rat immunization/hybridoma; purified IgG in BLI; also called 017
Take B6: the binding result in experiment [1] and in experiment [2] was “binds” in each case.

B7: HC-21/LC-21 (Ab21) (antibody, IgG1, V domains shown)
VH: QIQLVQSGPELKKPGESVKISCKASGYTFTDYAVYWVIQAPGKGLKWMGWINTYTGKPTYADDFKGRFVFSLETSASTANLQISNLKNEDTATYFCARGAGMTKDYVMDAWGRGVLVTVS
VL: SYELIQPPSASVTLGNTVSLTCVGDELSKRYAQWYQQKPDKTIVSVIYKDSERPSDISDRFSGSSSGTTATLTIHGTLAEDEADYYCLSTYSDDNLPVFGGGTKLTVL
notes: From rat immunization/hybridoma; purified IgG in BLI; also called 021
On to B7, for which the binding result in experiment [1] and in experiment [2] was “binds” each time.

B8: HC-18/LC-18 (Ab18) (antibody, IgG1, V domains shown)
VH: EVQLQQYGAELGKPGTSVRLSCKVSGYNIRNTYIHWVNQRPGEGLEWIGRIDPTNGNTISAEKFKTKATLTADTSSHTAYLQFSQLKSDDTAIYFCALNYEGYADYWGQGVMVTGSS
VL: DIQMTQSPSFLSASVGDRVTINCKASQNINKYLNWYQQKVGEAPKRLIFKTNSLQTGIPSRFSGSGSGTDYTLTISSLQTEDVATYFCFQYNIGYTFGAGTKVELK
notes: From rat immunization/hybridoma; purified IgG in BLI; also called 018
Regarding B8, the binding result in experiment [1] and in experiment [2] was “binds” each time.

B9: HC-20/LC-20 (Ab20) (antibody, IgG1, V domains shown)
VH: EVQLQQYGAELGKPGTSVRLSCKLSGYKIRNTYIHWVNQRPGKGLEWIGRIDPANGNTIYAEKFKSKVTLTADTSSNTAYMQLSQLKSDDTALYFCAMNYEGYEDYWGQGVMVTVSS
VL: DIQMTQSPSFLSASVGDSVTINCKASQNINKYLNWYQQKLGEAPKRLIHKTDSLQTGIPSRFSGSGSGTDYTLTISSLQPEDVATYFCFQYKSGFMFGAGTKLELK
notes: From rat immunization/hybridoma; purified IgG in BLI; also called 020
Consider B9, for which the binding result in experiment [1] and in experiment [2] was “binds” each time.

B10: HC-28/LC-28 (Ab28) (antibody, IgG1, V domains shown)
VH: EVQLQQYGAELGKPGTSVRLSCKVSGYKIRNTYIHWVNQRPGKGLEWIGRIDPANGNTIYAEKFKSKVTLTADTSSNTAYMQLSQLKSDDTALYFCAMNYEGYEDYWGQGVMVTVSS
VL: DIQMTQSPSFLSASVGDSVTINCKASQNINKYLNWYQQKLGEAPKRLIHKTNSLQPGFPSRFSGSGSGTDYTLTISSLQPEDVAAYFCFQYNSGFTFGAGTKLELK
notes: From rat immunization/hybridoma; purified IgG in BLI; also called 028
On to B10, for which the binding result in experiment [1] and in experiment [2] was “binds” each time.

B11: HC-23/LC-23 (Ab23) (antibody, IgG1, V domains shown)
VH: EVQLQQYGAELGKPGTSVRLSCKVSGYNIRNTYIHWVHQRPGEGLEWIGRIDPTNGNTISAEKFKSKATLTADTSSNTAYMQFSQLKSDDTAIYFCAMNYEGYADYWGQGVMVTVSS
VL: DIQMTQSPSFLSASVGDRLTINCKASQNINKYLNWYQQKLGEAPKRLIFKTNSLQTGIPSRFSGSGSGTDYTLTISSLQPEDVATYFCFQYNIGFTFGAGTKLELK
notes: From rat immunization/hybridoma; purified IgG in BLI; also called 023
As to B11, the binding entry in experiment [1] and in experiment [2] was “binds” each time.

B12: HC-27/LC-27 (Ab27) (antibody, IgG1, V domains shown)
VH: EVQLVESGGGLVQPGRSMKLSCKASGFTFSNYDMAWVRQAPTRGLEWVASISYDGITAYYRDSVKGRFTISRENAKSTLYLQLVSLRSEDTATYYCTTEGGYVYSGPHYFDYWGQGVMVTVSS
VL: DIQMTQSPSSMSVSLGDTVTITCRASQDVGIFVNWFQQKPGRSPRRMIYRATNLADGVPSRFSGSRSGSDYSLTISSLESEDVADYHCLQYDEFPRTFGGGTKLELK
notes: From rat immunization/hybridoma; purified IgG in BLI; also called 027
In the case of B12, the binding entry in experiment [1] and in experiment [2] was “binds” in each case.
